PubChem BioAssay AID1224828 – NIAID – 2016
Aim: 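Knock-downs that increase or decrease LPS-induced p65 nuclear translocation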 (primary screen). Cells: mouse RAW264.7 G9 macrophage reporter cells (GFP-p65, Tnf promoter-mCherry). Reagent: siRNA pool against mouse genes, 100 nM. Duration: 2 days siRNA transfection, then 40 min LPS before fixation. Conditions: LPS (Salmonella minnesota R595) at 10 ng/ml. Detection: 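Microscopy ratio of nuclear to perinuclear-ring GFP-p65 signal, scaled to the plate median; gene score is the average of two replicate robust z-scores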. Scale: p65 translocation robust z-score: higher = more nuclear NF-kappaB p65 after LPS than the plate median; nuclear/cytoplasmic p65 ratio: higher = more nuclear NF-kappaB p65. Rule for the call: 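Called active when z exceeds 3.3 or falls under -1.56 (median of Tlr4 controls), giving activity score of at least 50; no calls for control wells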. Calls: active = hit (p65 shift raised or lowered); inactive = no clear change.
Shown is a random part of about 17,000 reagents. In the full data, 762 (4.5%) are marked active. 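Active calls include both raised and lowered p65 entry, mostly lowered; wells with fewer than 50 cells lack a z-score.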 Raw values vary from plate to plate and are shown uncorrected.

{"target gene": "Slc37a1 (GeneID 224674)", "nuclear/cytoplasmic p65 ratio, rep 1": 1.77, "nuclear/cytoplasmic p65 ratio, rep 2": 1.03, "low cell count flag": "fewer than 50 cells per well; well left out of scoring", "activity call": "inactive"}
{"target gene": "Zfp68 (GeneID 24135)", "nuclear/cytoplasmic p65 ratio, rep 1": 1.54, "nuclear/cytoplasmic p65 ratio, rep 2": 1.12, "low cell count flag": "fewer than 50 cells per well; well left out of scoring", "activity call": "inactive"}
{"target gene": "Mrpl39 (GeneID 27393)", "p65 translocation robust z-score": 1.77, "nuclear/cytoplasmic p65 ratio, rep 1": 2.2, "nuclear/cytoplasmic p65 ratio, rep 2": 1.74, "low cell count flag": "enough cells to score", "activity call": "inactive"}
{"target gene": "Omt2b (GeneID 382088)", "p65 translocation robust z-score": 1.67, "nuclear/cytoplasmic p65 ratio, rep 1": 2.1, "nuclear/cytoplasmic p65 ratio, rep 2": 1.8, "low cell count flag": "enough cells to score", "activity call": "inactive"}
{"target gene": "Ptgds (GeneID 19215)", "p65 translocation robust z-score": -0.82, "nuclear/cytoplasmic p65 ratio, rep 1": 1.35, "nuclear/cytoplasmic p65 ratio, rep 2": 1.34, "low cell count flag": "enough cells to score", "activity call": "inactive"}
{"target gene": "Dlx3 (GeneID 13393)", "p65 translocation robust z-score": -2.12, "nuclear/cytoplasmic p65 ratio, rep 1": 1.2, "nuclear/cytoplasmic p65 ratio, rep 2": 1.18, "low cell count flag": "enough cells to score", "activity call": "active"}
{"target gene": "Nsd3 (GeneID 234135)", "p65 translocation robust z-score": -0.39, "nuclear/cytoplasmic p65 ratio, rep 1": 1.5, "nuclear/cytoplasmic p65 ratio, rep 2": 1.51, "low cell count flag": "enough cells to score", "activity call": "inactive"}
{"target gene": "Cd83 (GeneID 12522)", "p65 translocation robust z-score": 1.24, "nuclear/cytoplasmic p65 ratio, rep 1": 1.52, "nuclear/cytoplasmic p65 ratio, rep 2": 1.53, "low cell count flag": "enough cells to score", "activity call": "inactive"}
{"target gene": "Ptprn2 (GeneID 19276)", "p65 translocation robust z-score": 0.61, "nuclear/cytoplasmic p65 ratio, rep 1": 1.57, "nuclear/cytoplasmic p65 ratio, rep 2": 1.63, "low cell count flag": "enough cells to score", "activity call": "inactive"}
{"target gene": "Adra1d (GeneID 11550)", "p65 translocation robust z-score": 0.21, "nuclear/cytoplasmic p65 ratio, rep 1": 1.54, "nuclear/cytoplasmic p65 ratio, rep 2": 1.61, "low cell count flag": "enough cells to score", "activity call": "inactive"}
{"target gene": "Rapgef5 (GeneID 217944)", "p65 translocation robust z-score": 0.26, "nuclear/cytoplasmic p65 ratio, rep 1": 1.58, "nuclear/cytoplasmic p65 ratio, rep 2": 1.53, "low cell count flag": "enough cells to score", "activity call": "inactive"}
{"target gene": "Usp17lc (GeneID 13532)", "p65 translocation robust z-score": 1.02, "nuclear/cytoplasmic p65 ratio, rep 1": 1.67, "nuclear/cytoplasmic p65 ratio, rep 2": 1.43, "low cell count flag": "enough cells to score", "activity call": "inactive"}
{"target gene": "Akap1 (GeneID 11640)", "p65 translocation robust z-score": -0.96, "nuclear/cytoplasmic p65 ratio, rep 1": 1.32, "nuclear/cytoplasmic p65 ratio, rep 2": 1.26, "low cell count flag": "enough cells to score", "activity call": "inactive"}
{"target gene": "Ppnr (GeneID 26930)", "p65 translocation robust z-score": 0.22, "nuclear/cytoplasmic p65 ratio, rep 1": 1.43, "nuclear/cytoplasmic p65 ratio, rep 2": 1.22, "low cell count flag": "enough cells to score", "activity call": "inactive"}
{"target gene": "Rras (GeneID 20130)", "p65 translocation robust z-score": -0.09, "nuclear/cytoplasmic p65 ratio, rep 1": 1.45, "nuclear/cytoplasmic p65 ratio, rep 2": 1.56, "low cell count flag": "enough cells to score", "activity call": "inactive"}
{"target gene": "1700092C17Rik (GeneID 74295)", "p65 translocation robust z-score": 0.79, "nuclear/cytoplasmic p65 ratio, rep 1": 1.38, "nuclear/cytoplasmic p65 ratio, rep 2": 1.52, "low cell count flag": "enough cells to score", "activity call": "inactive"}
{"target gene": "Fgf21 (GeneID 56636)", "p65 translocation robust z-score": -0.32, "nuclear/cytoplasmic p65 ratio, rep 1": 1.32, "nuclear/cytoplasmic p65 ratio, rep 2": 1.4, "low cell count flag": "enough cells to score", "activity call": "inactive"}
{"target gene": "Laptm4b (GeneID 114128)", "p65 translocation robust z-score": 2.66, "nuclear/cytoplasmic p65 ratio, rep 1": 1.73, "nuclear/cytoplasmic p65 ratio, rep 2": 1.97, "low cell count flag": "enough cells to score", "activity call": "inactive"}
{"target gene": "Ankrd46 (GeneID 68839)", "p65 translocation robust z-score": -0.23, "nuclear/cytoplasmic p65 ratio, rep 1": 1.53, "nuclear/cytoplasmic p65 ratio, rep 2": 1.4, "low cell count flag": "enough cells to score", "activity call": "inactive"}
{"target gene": "Lrrc18 (GeneID 67580)", "nuclear/cytoplasmic p65 ratio, rep 1": 1.28, "nuclear/cytoplasmic p65 ratio, rep 2": 1.42, "low cell count flag": "fewer than 50 cells per well; well left out of scoring", "activity call": "inactive"}
{"target gene": "E130016E03RIK", "p65 translocation robust z-score": -0.75, "nuclear/cytoplasmic p65 ratio, rep 1": 1.34, "nuclear/cytoplasmic p65 ratio, rep 2": 1.29, "low cell count flag": "enough cells to score", "activity call": "inactive"}

2 of these entries, set out differently.
Dlx3 (GeneID 13393) → p65 translocation robust z-score: -2.12; nuclear/cytoplasmic p65 ratio, rep 1: 1.2; nuclear/cytoplasmic p65 ratio, rep 2: 1.18; low cell count flag: enough cells to score; activity call: active
Nsd3 (GeneID 234135) → p65 translocation robust z-score: -0.39; nuclear/cytoplasmic p65 ratio, rep 1: 1.5; nuclear/cytoplasmic p65 ratio, rep 2: 1.51; low cell count flag: enough cells to score; activity call: inactive
